PubChem BioAssay AID1259308 | NCATS | 2017
In all, the deposit lists about 59,000 reagents; shown is an unselected part. About 1,510 of them (2.6%) were called active. 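Calls use total luciferase alone and ignore viability, so some active siRNAs may act by altering cell number.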 Unmarked entries are inactive. Further read-outs or replicates are left out here.

- Assay: 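Candidate targets for better recombinant protein yield in mammalian cells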 (primary screen)
- Cell system: human HEK293 embryonic kidney cells stably expressing firefly luciferase (HEK-CMV-Luc2-Hygro)
- Knock-down reagent: single siRNA against human genes, 0.8 pmol siRNA per well
- Time to read-out: 72 h
- Measured: 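Luciferase light (ONE-Glo) measured on one replicate plate set and viability (CellTiter-Glo) on the other, scaled to a negative control siRNA, with robust z-scores and luciferase per cell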
- Scale: total luciferase, z-score and total luciferase, % of control: higher = more reporter protein produced
- Active means: 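Active when the median/MAD z-score for overall luciferase is greater than 3; a gene was taken forward for validation with new siRNAs if at least two of its three siRNAs passed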
- Meaning of the calls: active = raised luciferase; inactive = no rise

How did the screen score GFAP [SID160770429]?
total luciferase, z-score: -0.278; total luciferase, % of control: 76.4

What is on record for GFAP [SID160770441]?
total luciferase, z-score: -0.144; total luciferase, % of control: 79

What is on record for GFAP [SID160770450]?
total luciferase, z-score: 0.37; total luciferase, % of control: 89.2

For RPL31P31 [SID160726456], how do the results read?
total luciferase, z-score: -1.36; total luciferase, % of control: 54.9

What did the screen give for RPL31P31 [SID160771179]?
total luciferase, z-score: 1.42; total luciferase, % of control: 110

Which result is listed for RPL31P31 [SID160771180]?
total luciferase, z-score: -1.68; total luciferase, % of control: 48.4

How did the screen score PSMA5 [SID160715179]?
total luciferase, z-score: 0.036; total luciferase, % of control: 82.6

What is on record for PSMA5 [SID160715181]?
total luciferase, z-score: 0.348; total luciferase, % of control: 88.8

How did the screen score PSMA5 [SID160715182]?
total luciferase, z-score: -1.58; total luciferase, % of control: 50.5

For IP6K1 [SID160723136], what was measured?
total luciferase, z-score: -1.63; total luciferase, % of control: 49.5

Which result is listed for IP6K1 [SID160723137]?
total luciferase, z-score: 2.31; total luciferase, % of control: 128

With IP6K1 [SID160723138], how do the results read?
total luciferase, z-score: 0.548; total luciferase, % of control: 92.8

For ODF2L [SID160746088], what does the deposit list?
total luciferase, z-score: 1.96; total luciferase, % of control: 121

Which result is listed for ODF2L [SID160746090]?
total luciferase, z-score: 1.78; total luciferase, % of control: 117

Which result is listed for ODF2L [SID160746091]?
total luciferase, z-score: 2.04; total luciferase, % of control: 122

What did the screen give for ZFP30 [SID160731717]?
total luciferase, z-score: -0.449; total luciferase, % of control: 73

What did the screen give for ZFP30 [SID160731725]?
total luciferase, z-score: -2.36; total luciferase, % of control: 35

How did the screen score ZFP30 [SID160731734]?
total luciferase, z-score: 2.17; total luciferase, % of control: 125

How did the screen score RPL36AP46 [SID160734583]?
total luciferase, z-score: 1.1; total luciferase, % of control: 104

For RPL36AP46 [SID160772976], what was measured?
total luciferase, z-score: 0.338; total luciferase, % of control: 88.6

With RPL36AP46 [SID160772977], what was measured?
total luciferase, z-score: -1.02; total luciferase, % of control: 61.7

A few values from the list.
Under “total luciferase, % of control”, RPL31P31 [SID160771179] shows 110
IP6K1 [SID160723137], total luciferase, z-score → 2.31
Under “total luciferase, z-score”, PSMA5 [SID160715179] is entered as 0.036
For “total luciferase, z-score”, ZFP30 [SID160731725] shows -2.36
Under “total luciferase, z-score”, IP6K1 [SID160723136] is entered as -1.63

Continued.
What is on record for CPO [SID160730590]?
total luciferase, z-score: -0.189; total luciferase, % of control: 78.1

For CPO [SID160756995], what does the deposit list?
total luciferase, z-score: -0.106; total luciferase, % of control: 79.8

With CPO [SID160756996], what was measured?
total luciferase, z-score: -0.231; total luciferase, % of control: 77.3

For ELMO2 [SID160747266], what does the deposit list?
total luciferase, z-score: -0.411; total luciferase, % of control: 73.7

With ELMO2 [SID160747267], what was measured?
total luciferase, z-score: 0.132; total luciferase, % of control: 84.5

What is on record for ELMO2 [SID160747269]?
total luciferase, z-score: 1.51; total luciferase, % of control: 112

How did the screen score PIK3CD-AS1 [SID160769415]?
total luciferase, z-score: 1.51; total luciferase, % of control: 112

What is on record for PIK3CD-AS1 [SID160769416]?
total luciferase, z-score: -0.123; total luciferase, % of control: 79.4

How did the screen score PIK3CD-AS1 [SID160769417]?
total luciferase, z-score: 0.421; total luciferase, % of control: 90.3

For TADA1 [SID160755513], how do the results read?
total luciferase, z-score: 0.654; total luciferase, % of control: 94.9

For TADA1 [SID160755514], how do the results read?
total luciferase, z-score: 1.33; total luciferase, % of control: 108

With TADA1 [SID160755517], what does the deposit list?
total luciferase, z-score: 0.764; total luciferase, % of control: 97.1
